# Results are given in words; binding and its absence hold for the method and conditions named. Binding seen in cells or lysates may run through a third protein. These calls come from enrichment with a bait or labelling near it, and not all partners need be listed.
# Protein sequences, listed by entry. Tags and fused reporters are not part of them. Residues count along the entry.
# UniProt Q8JUX6, residues 536-1333: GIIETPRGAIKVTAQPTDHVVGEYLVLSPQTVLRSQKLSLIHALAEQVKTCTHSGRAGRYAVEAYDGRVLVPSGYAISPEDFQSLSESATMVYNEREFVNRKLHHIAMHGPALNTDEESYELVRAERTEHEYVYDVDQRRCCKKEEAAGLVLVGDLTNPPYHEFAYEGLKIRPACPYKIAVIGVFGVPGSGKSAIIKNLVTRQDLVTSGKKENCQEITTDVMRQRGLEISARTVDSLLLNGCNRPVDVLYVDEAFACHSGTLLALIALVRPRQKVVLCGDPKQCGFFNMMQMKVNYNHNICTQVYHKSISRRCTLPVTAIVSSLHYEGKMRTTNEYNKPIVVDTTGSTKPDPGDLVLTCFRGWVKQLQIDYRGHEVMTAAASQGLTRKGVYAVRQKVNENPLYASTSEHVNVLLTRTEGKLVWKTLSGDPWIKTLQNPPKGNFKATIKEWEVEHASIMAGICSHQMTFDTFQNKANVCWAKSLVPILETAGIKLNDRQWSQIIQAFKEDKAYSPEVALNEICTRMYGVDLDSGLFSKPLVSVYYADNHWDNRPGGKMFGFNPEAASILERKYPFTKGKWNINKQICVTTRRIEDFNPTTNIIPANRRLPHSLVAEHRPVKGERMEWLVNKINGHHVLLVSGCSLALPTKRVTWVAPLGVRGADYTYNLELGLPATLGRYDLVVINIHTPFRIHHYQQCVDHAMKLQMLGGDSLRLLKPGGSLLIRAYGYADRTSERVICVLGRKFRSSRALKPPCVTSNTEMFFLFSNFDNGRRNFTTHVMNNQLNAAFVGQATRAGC
# UniProt P35221: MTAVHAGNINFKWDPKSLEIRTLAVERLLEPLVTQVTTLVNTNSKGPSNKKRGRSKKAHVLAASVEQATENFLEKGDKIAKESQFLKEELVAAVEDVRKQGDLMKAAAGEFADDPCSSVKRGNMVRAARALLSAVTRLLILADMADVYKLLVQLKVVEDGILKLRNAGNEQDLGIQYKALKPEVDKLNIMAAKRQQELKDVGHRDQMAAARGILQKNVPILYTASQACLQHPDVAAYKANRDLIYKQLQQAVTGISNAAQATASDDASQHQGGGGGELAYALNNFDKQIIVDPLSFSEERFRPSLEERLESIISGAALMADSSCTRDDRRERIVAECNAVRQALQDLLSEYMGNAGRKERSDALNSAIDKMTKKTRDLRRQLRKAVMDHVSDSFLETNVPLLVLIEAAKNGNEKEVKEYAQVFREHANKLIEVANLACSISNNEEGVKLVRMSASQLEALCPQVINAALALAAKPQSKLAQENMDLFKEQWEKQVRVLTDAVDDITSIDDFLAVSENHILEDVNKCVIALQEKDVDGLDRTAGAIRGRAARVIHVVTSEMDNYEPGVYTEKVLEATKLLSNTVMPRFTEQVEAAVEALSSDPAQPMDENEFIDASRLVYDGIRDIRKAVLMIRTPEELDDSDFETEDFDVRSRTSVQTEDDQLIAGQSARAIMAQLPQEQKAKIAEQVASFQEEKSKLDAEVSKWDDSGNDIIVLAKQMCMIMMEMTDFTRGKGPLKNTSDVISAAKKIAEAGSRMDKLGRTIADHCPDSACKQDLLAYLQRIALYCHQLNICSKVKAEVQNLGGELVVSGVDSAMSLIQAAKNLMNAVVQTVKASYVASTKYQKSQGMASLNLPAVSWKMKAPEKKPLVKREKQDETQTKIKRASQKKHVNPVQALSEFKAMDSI
# Target: CHIKV-nsP2 (of the mass spectrometry experiment) (Chikungunya virus) (UniProt Q8JUX6)
# Test: affinity purification with mass spectrometry
substance,measurement,value
Catenin-α-1 (hit of the mass spectrometry of CHIKV-nsP2 partners) (from UniProt P35221 1-906),binding,binds
